No constants are given. Whether binding was seen depends on the method and setting. In cells and extracts the contact can be indirect. Some binding calls cover weakened binding; strength is not graded here.
Tests used:
[1] = molecular target: T1, PGC-1α (peroxisome proliferator-activated receptor gamma coactivator 1-alpha) (rat (endogenous in PC-12)) (UniProt Q9QYK2); assay: condition: only PC12 cells treated 24 h with AβOs (0.5 µM); co-IP; lysates of PC12 cells treated 24 h with AβOs (0.5 µM), precleared; anti-PGC-1α rabbit antibody (1 µg per mg protein) with Protein A/G PLUS agarose overnight; western blot with anti-PGC-1α and anti-SIRT1
T1 sequence: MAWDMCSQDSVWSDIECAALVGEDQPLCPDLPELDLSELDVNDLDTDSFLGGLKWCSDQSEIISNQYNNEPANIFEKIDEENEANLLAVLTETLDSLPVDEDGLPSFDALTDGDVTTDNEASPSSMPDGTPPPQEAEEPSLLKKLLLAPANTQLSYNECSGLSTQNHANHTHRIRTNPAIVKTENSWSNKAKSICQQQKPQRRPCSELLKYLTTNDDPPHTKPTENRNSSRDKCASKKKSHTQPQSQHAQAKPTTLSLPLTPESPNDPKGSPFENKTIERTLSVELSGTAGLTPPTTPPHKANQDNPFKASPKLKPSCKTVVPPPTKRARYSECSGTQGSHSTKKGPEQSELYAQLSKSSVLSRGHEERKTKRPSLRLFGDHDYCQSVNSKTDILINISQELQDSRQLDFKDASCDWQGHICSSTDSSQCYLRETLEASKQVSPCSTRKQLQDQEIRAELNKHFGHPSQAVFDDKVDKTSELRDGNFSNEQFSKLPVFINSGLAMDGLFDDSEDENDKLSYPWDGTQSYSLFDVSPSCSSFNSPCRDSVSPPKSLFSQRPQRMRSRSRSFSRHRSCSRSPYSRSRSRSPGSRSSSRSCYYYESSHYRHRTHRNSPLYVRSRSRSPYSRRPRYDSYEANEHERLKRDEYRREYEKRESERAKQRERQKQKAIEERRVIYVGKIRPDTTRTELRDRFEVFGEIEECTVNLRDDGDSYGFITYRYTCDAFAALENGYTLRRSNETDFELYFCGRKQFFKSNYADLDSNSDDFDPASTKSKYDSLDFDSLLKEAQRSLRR

[2] = molecular target: T1, PGC-1α (peroxisome proliferator-activated receptor gamma coactivator 1-alpha) (rat (endogenous in PC-12)); assay: co-IP; lysates of untreated (control) PC12 cells, precleared; anti-PGC-1α rabbit antibody (1 µg per mg protein) with Protein A/G PLUS agarose overnight; western blot with anti-PGC-1α and anti-SIRT1; rabbit control IgG in parallel

B1: SIRT1 (silent information regulator 2 homolog 1) (protein, UniProt A0A0G2JZ79 1-741)
chain: MADEAALALQAGGSPSAAAAMEAASQPADEPLRKRPRRDGPGLGRSPGEPSAAAAAAAAAAGCEAASAAAPAALWREAAGAAAASAEREAPATAAAGDGDNGPGLRREPRAADDFDDDEGEEEDEAAAAAAAAIGYRDNLLLADEIITNGFHSCESDDDDRASHASSSDWTPRPRIGPYTFVQQHLMIGTDPRTILKDLLPETIPPPELDDMTLWQIVINILSEPPKRKKRKDINTIEDAVKLLQECKKIIVLTGAGVSVSCGIPDFRSRDGIYARLAVDFPDLPDPQAMFDIEYFRKDPRPFFKFAKEIYPGQFQPSLCHKFIALSDKEGKLLRNYTQNIDTLEQVAGIQRIIQCHGSFATASCLICKYKVDCEAVRGDIFNQVVPRCPRCPADEPLAIMKPEIVFFGENLPEQFHRAMKYDKDEVDLLIVIGSSLKVRPVALIPSSIPHEVPQILINREPLPHLHFDVELLGDCDVIINELCHRLGGEYAKLCCNPVKLSEITEKPPRTQKELVHLSELPPTPLHISEDSSSPERTVPQDSSVIATLVDQTIKNKVDDLEVSEPKSCVEEKSQEVQTYRNVESINVENPDFKAVGSSTGDKNERTSVAETVRKCWPNRLAKEQISKRLDGNQYLFVPPNRYIFHGAEVYSDSEDDALSSSSCGSNSDSGTCQSPSLEEPLEDESEIEEFYNGLEDDADRPECAGGSGADGGDQEAVNEAIAMKQELTDVNCTPDKSEHY
[1]
  binding: no binding
[2]
  binding: binds
